This assay concerns the target Dual specificity tyrosine-phosphorylation-regulated kinase 1B (Homo sapiens, UniProt Q9Y463). The assay can be described thus: Affinity On-target Cellular interaction: (NanoBRET assay (in HEK293T cells)) EUB0000008b DYRK1B. It is filed as cell-based, HEK-293T. Also on record: mode of action Inhibitor, recommended concentration 1 uM. A general note: BRET reads energy transfer from a luciferase to a nearby fluorophore.

By UniProt entry, the sequences of proteins in these tests, tags left out.
UniProt Q9Y463, whole entry: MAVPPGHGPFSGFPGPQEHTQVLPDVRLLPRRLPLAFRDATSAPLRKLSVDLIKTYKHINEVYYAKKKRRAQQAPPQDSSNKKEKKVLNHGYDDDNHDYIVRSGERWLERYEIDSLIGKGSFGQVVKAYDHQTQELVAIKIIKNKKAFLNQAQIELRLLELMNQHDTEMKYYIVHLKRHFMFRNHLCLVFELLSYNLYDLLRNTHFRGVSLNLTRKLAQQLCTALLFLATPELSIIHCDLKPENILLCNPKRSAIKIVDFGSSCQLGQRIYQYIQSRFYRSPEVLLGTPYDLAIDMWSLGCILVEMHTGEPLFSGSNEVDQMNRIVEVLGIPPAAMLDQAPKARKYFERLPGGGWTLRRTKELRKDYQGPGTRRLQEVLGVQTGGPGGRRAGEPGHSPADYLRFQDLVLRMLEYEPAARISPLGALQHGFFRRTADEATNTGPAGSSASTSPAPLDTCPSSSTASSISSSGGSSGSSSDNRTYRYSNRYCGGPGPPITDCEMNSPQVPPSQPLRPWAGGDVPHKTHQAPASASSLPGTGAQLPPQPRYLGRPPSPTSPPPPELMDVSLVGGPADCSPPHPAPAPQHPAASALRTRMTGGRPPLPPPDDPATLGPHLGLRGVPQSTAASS

The Ki is a measure of affinity in units of concentration, obtained from inhibition or displacement.

As for `Cn1cc(-c2ccc3occ(-c4cccc(-c5ccncc5)c4)c3n2)cn1`, the Ki amounted to 10 µM. That is a double-digit micromolar value.

These data come from ChEMBL document CHEMBL5445981, “Affinity On-target Cellular Literature for EUbOPEN Chemogenomic Library” (2024).
